Measured values as given in patent US20080227724A1, “Anti-Inflammatory Agents” (CAMBRIDGE UNIVERSITY TECHNICAL SERVICES LIMITED, priority 2003, published 2008).
Some results were stated once for a whole list of compounds, not compound by compound.

Columns and labels:
TNF-alpha = assay: Sub-lethal LPS-induced endotoxemia model, circulating TNF-alpha; type: in vivo, CD-1 mice
Protocol: The anti-inflammatory activity of the compounds of the invention was determined in vivo using a sub-lethal LPS-induced endotoxemia model. Adult male CD-1 mice (n=6 per group) were pretreated with various agents (vehicle, compounds of the invention or positive control agents such as the steroid dexamethasone) by sub-cutaneous injection 30 minutes prior to an acute inflammatory challenge with 750 μg of bacterial lipopolysaccharide (from E. Coli 0111:B4; Sigma catalog #L-4130) via the intraperitoneal route. The vehicle in each case was 0.6% DMSO, 1% carboxymethyl cellulose, or alternatively 1% carboxymethylcellulose alone. For some of the compounds, this formulation results in a finely divided suspension or slurry rather than a clear solution. Two hours after LPS challenge, the animals were sacrificed and blood was drawn by cardiac puncture. The level of the pro-inflammatory cytokine TNF-alpha was determined using the Quantikine M ELISA (R&D Systems) for murine TNF-alpha, and reported as the mean ±standard error for each group.
By 2 hours after the LPS challenge, this had increased by more than 1,000 fold to an average of 20,000 pg/ml, representing a sensitive index of inflammatory activation. Pre-treatment with known anti-inflammatory drugs (such as the steroid dexamethasone) reduced the stimulation of TNF-alpha by up to 85-95%, depending on the dose given.
In a separate series of experiments, the compounds of the invention were administered to animals as an oral suspension, formulated in the same way as for the sub-cutaneous dosing experiments, followed 1 hour later with the LPS challenge exactly as described above. […] All five compounds were maximally active at a dose below 30 mg/kg.

[1] = tested on: MCP-1 induced THP-1 cell migration; assay: Inhibition of MCP-1 induced leukocyte migration (transwell migration assay); type: cell-based, human; conditions: inhibition of MCP-1 induced THP-1 cell migration, dose-response curves
Protocol: In principle, this assay consists of two chambers separated by a porous membrane. The chemoattractant is placed in the lower compartment and the cells are placed in the upper compartment. After incubation for a period at 37° C. the cells move towards the chemoattractant, and the number of cells in the lower compartment is proportional to the chemoattractant activity (relative to a series of controls). The THP-1 cell line (European Cell culture Collection) were used as the leukocyte cell population. The following procedure is used for testing the invention compounds for MCP-1 induced leukocyte migration: First, the cell suspension to be placed in the upper compartment is prepared. The THP-1 cells are pelleted by centrifugation (770×g; 4 mins) and washed with Geys Balanced Salt Solution with 1 mg/ml BSA (GBSS+BSA). This wash is then repeated, and the cells repelleted before being resuspended in a small volume of GBSS+BSA for counting, for example using a standard haemocytometer. The volume of GBSS+BSA is then adjusted depending on the number of cells present so that the cells are at final density of 4.45×10^6 cells per ml of GBSS+BSA. […] The number of cells migrated into the lower chamber under each condition can then be determined by a number of methods, including direct counting, labelling with fluorescent or radioactive markers or through the use of a vital dye. […]

[2] = oral suspension 1 hour before LPS
[3] = sub-cutaneous injection 30 minutes prior to LPS

(R)-3-hexadecanoylamino-caprolactam [Example 7]
dose at which maximally active (TNF-alpha; [2]): below 30 mg/kg | dose at which maximally active (TNF-alpha; [3]): below 1 mg/kg

(S)-3-(2′,2′-dimethyl-dodecanoyl)amino-caprolactam [Example 12]
dose at which maximally active (TNF-alpha; [2]): below 30 mg/kg | dose at which maximally active (TNF-alpha; [3]): below 1 mg/kg

(S)-3-(2′,2′-Dimethyl-propionyl)amino-caprolactam [Example 20]
dose at which maximally active (TNF-alpha; [2]): below 30 mg/kg | dose at which maximally active (TNF-alpha; [3]): below 1 mg/kg

(S)-(Z)-3-(octadec-9-enoyl)amino-caprolactam [Example 10]
dose at which maximally active (TNF-alpha; [2]): below 30 mg/kg | dose at which maximally active (TNF-alpha; [3]): below 1 mg/kg | (S)-enantiomer more active than the (R)-enantiomer [1]: 10-50 fold

(S)-(Z)-3-(hexadec-9-enoyl)amino-caprolactam [Example 9]
dose at which maximally active (TNF-alpha; [2]): below 30 mg/kg | dose at which maximally active (TNF-alpha; [3]): below 1 mg/kg
